Entries after “also recorded” stand apart in the source; their conditions may differ.
Experiment: Perfume (odor) quality of armpit odor components
Conditions: odor quality in words

For `CCC[C@@](C)(O)CC(=O)O` [(R)-3-hydroxy-3-methylhexanoic acid], which Perfume quality is on record?
The Perfume quality was “Cumin spice like odor; also recorded: weaker than racemic body”.

Which Perfume quality does the source give for `CCCC(C)(O)CC(=O)O` (stereo not shown) [3-hydroxy-3-methylhexanoic acid] here?
Its Perfume quality is “Strong armpit like and; also recorded: cumin spice like odor”.

For `CCC[C@](C)(O)CC(=O)O` [(S)-3-hydroxy-3-methylhexanoic acid], which Perfume quality is on record?
Its Perfume quality is “cumin spice like odor; also recorded: Armpit odor like and”.

With `CCC/C(C)=C\C(=O)O` [cis-3-methyl-2-hexenoic acid] as the compound, how does the Perfume quality read?
The Perfume quality was “Acidic odor”.

For `CCCC(C)=CC(=O)O` [3-methyl-2-hexenoic acid (trans-isomer/cis-isomer = 1/1), 3-methyl-2-hexenoic acid], which Perfume quality is on record?
Its Perfume quality is “Acidic odor stronger than”.

For `CCCC(C)(O)CC(=O)O` (racemic) [3-hydroxy-3-methylhexanoic acid (racemic body), 3-hydroxy-3-methylhexanoic acid], which Perfume quality is on record?
The Perfume quality was “Cumin spice like odor; also recorded: like an armpit odor; also recorded: weaker than an S-body”.

Which Perfume quality does the source give for `CCC/C(C)=C/C(=O)O` [trans-3-methyl-2-hexenoic acid] here?
Its Perfume quality is “Acidic odor”.

Reference: patent US20060159639A1, “Pseudo body odor composition and perfume composition for inhibiting body odor” (priority 2003, published 2006)
